Results deposited as PubChem BioAssay AID1259254 (NCATS, 2017)
Shown is a random part of about 59,000 deposited reagents. About 1,550 of them (2.6%) were called active. 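G2 share is only a proxy for re-replication; each gene was hit by three separate siRNAs, and active genes were retested.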 Unmarked entries are inactive. The numbers tell different reagents against one gene apart. Further read-outs or replicates are left out here. The record does not give: the amount of reagent.

Assay: 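Genome-wide screen for genes that prevent DNA re-replication in cancer cells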 (primary screen)
Cell system: human HCT116 colorectal cancer cells
Reagent: single siRNA against human genes
Duration: 3 days
Read-out: 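Imaged Hoechst DNA stain sorts each cell into a cycle phase by DNA amount; per plate, G2 fraction set to 0% for non-targeting and 100% for GMNN siRNA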
Scale: G2 robust z-score: higher = more G2 cells, more excess DNA replication
Hit rule: 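Active siRNAs have a G2 robust z of 5 or more median absolute deviations over the median, which in these data means about 38% or higher of GMNN control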

| gene knocked down | siRNA no. | G2 robust z-score |
| --- | --- | --- |
| CWC15 | 1 | -0.873 |
| CWC15 | 2 | 1.25 |
| CWC15 | 3 | -0.337 |
| OR12D2 | 1 | 2.86 |
| OR12D2 | 2 | -0.257 |
| OR12D2 | 3 | 1.49 |
| IQSEC3 | 1 | 0.858 |
| IQSEC3 | 2 | 4.03 |
| IQSEC3 | 3 | -0.0293 |
| NR2F2 | 1 | 1.73 |
| NR2F2 | 2 | -0.368 |
| NR2F2 | 3 | -0.14 |
| DDB1 | 1 | 5.19 (active) |
| DDB1 | 2 | 5.29 (active) |
| DDB1 | 3 | 4.02 |
| TRIM23 | 1 | -0.786 |
| TRIM23 | 2 | -1.04 |
| TRIM23 | 3 | -1.12 |
| GSTM3 | 1 | 6.32 (active) |
| GSTM3 | 2 | 0.55 |
| GSTM3 | 3 | 0.0522 |
| CSN3 | 1 | -0.435 |
| CSN3 | 2 | 1.11 |
| CSN3 | 3 | 0.296 |
| NDUFAF3 | 1 | 0.655 |
| NDUFAF3 | 2 | 1.55 |
| NDUFAF3 | 3 | 1.64 |
| PITPNA | 1 | 0.161 |
| PITPNA | 2 | -0.563 |
| PITPNA | 3 | -0.868 |
| MMP8 | 1 | 0.0499 |
| MMP8 | 2 | 0.00569 |
| MMP8 | 3 | 0.456 |
| ADCYAP1R1 | 1 | 4.22 |
| ADCYAP1R1 | 2 | 1.29 |
| ADCYAP1R1 | 3 | 0.812 |
| SPRYD3 | 1 | -0.468 |
| SPRYD3 | 2 | -0.479 |
| SPRYD3 | 3 | -0.282 |
| ANGPTL1 | 1 | 4.02 |
| ANGPTL1 | 2 | 5.16 (active) |
| ANGPTL1 | 3 | 1.14 |
| OR10A7 | 1 | 0.429 |
| OR10A7 | 2 | -0.6 |
| OR10A7 | 3 | 0.933 |
| ZNF45 | 1 | 0.225 |
| ZNF45 | 2 | 4.43 |
| ZNF45 | 3 | 2.33 |
| UNC93B2 | 1 | -0.318 |
| UNC93B2 | 2 | -0.524 |
| UNC93B2 | 3 | -0.618 |
| UNC93B2 | 4 | -0.505 |
| UNC93B2 | 5 | -0.488 |
| UNC93B2 | 6 | 0.0328 |
| PRSS59P | 1 | -0.169 |
| PRSS59P | 2 | -0.505 |
| PRSS59P | 3 | -0.259 |
| NECAP2 | 1 | -0.885 |
| NECAP2 | 2 | 0.857 |
| NECAP2 | 3 | -1.68 |
| LOC728667 | 1 | 0.176 |
| LOC728667 | 2 | -0.445 |
| LOC728667 | 3 | -1.03 |
| OR8D2 | 1 | -0.248 |
| OR8D2 | 2 | -0.827 |
| OR8D2 | 3 | -0.533 |
| PRELID1P6 | 1 | -1.1 |
| PRELID1P6 | 2 | 1.34 |
| PRELID1P6 | 3 | -0.425 |
